According to article PMC6925144, “A prospective compound screening contest identified broader inhibitors for Sirtuin 1” (Scientific Reports, 2019):
The full ranking holds about 3,200 compounds; the median of “TSA(with NAD+) / Primary screening (TSA) / delta Tm (K)” is about -0.04, and the highest 2% start at about 0.37. This is one part of the list.

Sequences of proteins named here, by UniProt entry; tags and fusion partners are left off. Residues count along the entry.
UniProt Q96EB6, 2-747 limits assumed: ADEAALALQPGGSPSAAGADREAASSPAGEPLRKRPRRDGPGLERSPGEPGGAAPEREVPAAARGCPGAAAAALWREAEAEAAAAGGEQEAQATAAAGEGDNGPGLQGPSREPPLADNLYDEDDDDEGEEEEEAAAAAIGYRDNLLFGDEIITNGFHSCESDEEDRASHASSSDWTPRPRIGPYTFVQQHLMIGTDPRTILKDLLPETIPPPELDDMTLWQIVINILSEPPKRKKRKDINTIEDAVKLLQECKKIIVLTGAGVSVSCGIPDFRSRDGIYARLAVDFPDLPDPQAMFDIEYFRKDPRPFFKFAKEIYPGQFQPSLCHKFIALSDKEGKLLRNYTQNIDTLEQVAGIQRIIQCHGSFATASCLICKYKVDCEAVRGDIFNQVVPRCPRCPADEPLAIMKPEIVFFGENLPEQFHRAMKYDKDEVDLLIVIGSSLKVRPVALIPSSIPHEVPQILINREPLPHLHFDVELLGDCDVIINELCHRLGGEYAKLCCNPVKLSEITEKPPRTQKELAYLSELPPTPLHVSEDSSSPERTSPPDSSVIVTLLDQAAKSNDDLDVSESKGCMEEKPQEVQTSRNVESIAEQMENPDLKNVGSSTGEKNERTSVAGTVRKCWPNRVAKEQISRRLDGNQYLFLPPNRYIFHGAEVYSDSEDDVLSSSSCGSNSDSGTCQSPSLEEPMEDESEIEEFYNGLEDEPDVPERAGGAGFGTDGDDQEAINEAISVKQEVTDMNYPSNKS

Target: NAD-dependent deacetylase Sirtuin 1 (human, UniProt Q96EB6)
Assay: primary screen, delta tm
Design: single well (n = 1, as 'the same TSA')
Settings: 10 µM

Structure (SMILES)	TSA(with NAD+) / Primary screening (TSA) / delta Tm (K)
CN(C)C(=O)c1ccccc1NC(=O)NC(C)(C)c1ccc(F)cc1	-0.22 K
O=C1NC(=S)NC(=O)C1=Cc1ccc(-c2ccccc2)s1	-0.06 K
Cn1c(SCCc2ccccc2)nc2ccsc2c1=O	-0.19 K
O=C(COC(=O)C1=COCCO1)Nc1cccc2ccccc12	0.09 K
Cn1ccnc1C(NC(=O)c1ccc(O)c(Cl)c1)c1ccccc1F (stereo not shown)	-0.23 K
CCN(CC)c1ccc(NC(=O)CN2CCCC2C(=O)N(C)C)cc1 (stereo not shown)	-0.13 K
Cc1ccc(N(C)S(=O)(=O)c2cccc(C(=O)Oc3ccc4oc5ccccc5c4c3)c2)cc1	0.06 K
Cc1c(C=C2C(=O)NC(=S)NC2=O)cnn1-c1ccccc1	-0.22 K
Cc1nn(-c2cccc(C(F)(F)F)c2)c(C)c1C(=O)C(=O)N1CCNC(=O)C1	-0.24 K
CC(C)Oc1ccc(C2C(C(=O)c3ccco3)=C(O)C(=O)N2CCCN2CCOCC2)cc1 (stereo not shown)	0.03 K
C=CCOCCN	-0.02 K
CC(C)C(NC(=O)c1cnsn1)c1cccs1 (stereo not shown)	-0.04 K
CC(OC(=O)C1CC(=O)N(Cc2ccco2)C1)C(=O)Nc1ccc(C(N)=O)cc1 (stereo not shown)	-0.13 K
O=C(C1=C(O)C(=O)N(CCCN2CCOCC2)C1c1cccc([N+](=O)[O-])c1)c1ccco1 (stereo not shown)	-0.13 K
O=C(OCc1cccc2ccccc12)C1CCCCN1c1ncccn1 (stereo not shown)	-0.03 K
NCCC[C@H](N)C(=O)O	0.13 K
CN(c1ccc(F)cc1)S(=O)(=O)c1cccc(-c2nnnn2C)c1	-0.09 K
CC(=O)c1cccc(NC(=O)c2ccc(CCNS(C)(=O)=O)s2)c1	-0.09 K
NC(=O)c1ccc(COC(=O)c2ccccc2-c2ncc(-c3ccccc3)o2)cc1	0.03 K
CCCN(CC)CCN	-0.11 K
Cc1c(-c2ccccc2)oc2c(C(=O)OCC(=O)NC34CC5CC(CC(C5)C3)C4)cccc2c1=O	-0.02 K
COc1ccc(CNCc2c[nH]nc2-c2ccc(C)cc2)cc1OC	-0.13 K
NC(=S)c1ccc(C(=O)NCc2ccnc(OCC(F)(F)F)c2)cc1	-0.11 K

Structure (SMILES)	TSA(with NAD+) / Primary screening (TSA) / delta Tm (K)
COc1ccc(NC(=O)COC(=O)c2ccccc2SCC(=O)NC23CC4CC(CC(C4)C2)C3)cc1OC	-0.08 K
COc1ccc(C(=O)C2=C(O)C(=O)N(CCCN3CCOCC3)C2c2ccccc2F)cc1 (stereo not shown)	-0.05 K
COc1ccc(N(C)S(=O)(=O)c2cccc(C(=O)OCCCC(=O)c3ccc(F)cc3)c2)cc1	0.17 K
O=C(CC(=O)N/N=C/c1ccc(O)cc1O)N/N=C/c1ccc(O)cc1O	0.29 K
CCOCC(C)N (stereo not shown)	-0.11 K
CCCOc1ccc(C(=O)C2=C(O)C(=O)N(CCCN3CCOCC3)C2c2ccccn2)cc1 (stereo not shown)	-0.12 K
Cc1cccc(NC(=O)CN2CCN(C(=O)c3ccccc3C(=O)c3ccccc3)CC2)c1C	-0.12 K
Cn1c(-c2ccccc2)c(C(=O)O)c2ccccc21	0.07 K
Cc1cccc(N/C=C(/C(=O)c2ccccc2)C(=O)C(F)(F)F)c1	0.06 K
NC(=O)C1CCN(CCCNC(=O)Nc2cccc(N3CCNC3=O)c2)CC1	-0.15 K
O=C(Nc1cccc(S(=O)(=O)N2CCOCC2)c1)c1cccc(S(=O)(=O)N2CCc3ccccc32)c1	0.41 K
Cc1oc2nc[nH]c(=O)c2c1C(=O)OC(C)C(=O)N1CCOCC1 (stereo not shown)	-0.06 K
OC(COc1c(Cl)cccc1Cl)Cn1nnc(-c2cccnc2)n1 (stereo not shown)	-0.18 K
CN(c1ccccc1)S(=O)(=O)c1cccc(/N=C2/C(=O)Nc3ccc(Br)cc32)c1	-0.28 K
COc1ccc(C(=O)O)cc1S(=O)(=O)Nc1cc(C(N)=O)cc(C(N)=O)c1	0.01 K
COc1ccc(C)cc1-n1ccc(C(=O)N2CCCc3c(C(N)=O)cccc32)n1	0.02 K
CC(C)OCc1ccc(C(=O)Nc2ccc(N3CCN(Cc4ccccc4)CC3)cc2)cc1	0.25 K
Cc1cc(C=C2C(=O)NC(=S)NC2=O)c(C)n1-c1cccc(C(F)(F)F)c1	-0.73 K
O=C1NCCN(C(=O)c2ccon2)C1c1ccc(C(F)(F)F)cc1 (stereo not shown)	-0.03 K
CCc1ccc(-c2nn(-c3ccccc3)cc2C=C2C(=O)NC(=O)NC2=O)cc1	-0.38 K
CNC(=O)C(C)CN(C)c1ccc(C(F)(F)F)c(C#N)c1 (stereo not shown)	-0.21 K
O=C(Nc1ccccc1)C1CCN(C(=O)c2cc(-c3ccc(O)cc3)nc3ccccc23)CC1	0.22 K
CC(C(=O)Nc1ccc(C(N)=O)cc1)N(C)Cc1ccccc1N1CCCCC1 (stereo not shown)	0.05 K

Three consecutive records already listed:
Structure (SMILES)	TSA(with NAD+) / Primary screening (TSA) / delta Tm (K)
CC(C)Oc1ccc(C2C(C(=O)c3ccco3)=C(O)C(=O)N2CCCN2CCOCC2)cc1 (stereo not shown)	0.03 K
C=CCOCCN	-0.02 K
CC(C)C(NC(=O)c1cnsn1)c1cccs1 (stereo not shown)	-0.04 K
